Laboratory results published in the supplement of paper PMC6078165.
± gives the standard deviation of the averaged measurements. The reference is the same well before dosing, and untreated signal decays as well.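 Labels refer to human fibroblasts, largely primary: uterine (C12385, HUF), lung (H6013), bone (Hs27A), adrenal (HADF), skin (WS1), plus mammary HMF and breast cancer-associated Hs343T. Cancer lines are basal-like or mesenchymal-like triple-negative breast cancer. The paper counts as hits responses shifting over 3x the replicate standard deviation. The tissue of the other fibroblasts is not given here.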

Tested on: MDAMB231
Experiment: relative JC-1 red fluorescence (viability) vs pre-drug, coculture with fibroblast (fraction); higher = more viable cancer cells
Conditions: 10 µM
Experimental: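 JC-1 labelled TNBC cells cocultured 1:1 (1,500 cells each) with CellTrace Violet stained primary or stromal fibroblasts in 384-well plates in FluoroBrite medium, treated with one of 42 anticancer drugs at 0.1, 1, 10 or 100 uM. JC-1 red fluorescence (mitochondrial integrity in cancer cells only) was read by plate reader every 8 h for 72 h. Values are normalised to each well's pre-drug value. The stock of one drug was tenfold lower, so its dose labels may be too high.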

CC/C(=C(\c1ccccc1)c1ccc(OCCN(C)C)cc1)c1ccccc1 [Tamoxifen]
relative JC-1 red fluorescence
Conditions | 24 h | 32 h | 40 h | 48 h | 56 h | 64 h | 72 h
coculture fibroblast: C12385 | – | 0.778 ± 0.038 | 0.768 ± 0.014 | 0.755 ± 0.024 | 0.746 ± 0.022 | 0.75 ± 0.037 | 0.751 ± 0.033
coculture fibroblast: H6013 | – | 0.938 ± 0.019 | 0.9162 ± 0.006 | 0.87 ± 0.012 | 0.908 ± 0.021 | 0.9007 ± 0.0075 | 0.8813 ± 0.0042
coculture fibroblast: H6019 | – | 0.721 ± 0.024 | 0.69 ± 0.028 | 0.669 ± 0.043 | 0.652 ± 0.055 | 0.616 ± 0.048 | 0.591 ± 0.05
coculture fibroblast: H6076 | – | 0.873 ± 0.085 | 0.947 ± 0.053 | 0.895 ± 0.085 | 0.905 ± 0.034 | 0.8 ± 0.14 | 0.891 ± 0.029
coculture fibroblast: H6231 | 0.872 ± 0.027 | 0.895 ± 0.1 | 0.836 ± 0.19 | 0.917 ± 0.042 | 0.862 ± 0.098 | 0.825 ± 0.099 | 0.902 ± 0.027
coculture fibroblast: HADF | 0.8982 ± 0.0037 | 0.896 ± 0.01 | 0.881 ± 0.022 | 0.815 ± 0.022 | 0.862 ± 0.036 | 0.869 ± 0.039 | 0.831 ± 0.041
coculture fibroblast: HCFa | 0.943 ± 0.034 | 0.964 ± 0.046 | 0.967 ± 0.029 | 0.922 ± 0.029 | 0.944 ± 0.043 | 0.927 ± 0.045 | 0.908 ± 0.046
coculture fibroblast: HCPF | 0.788 ± 0.086 | 0.837 ± 0.12 | 0.787 ± 0.021 | 0.853 ± 0.12 | 0.765 ± 0.051 | 0.862 ± 0.18 | 0.858 ± 0.051
coculture fibroblast: HHSteC | 0.974 ± 0.01 | 0.967 ± 0.011 | 0.96 ± 0.021 | 0.939 ± 0.013 | 0.939 ± 0.021 | 0.955 ± 0.002 | 0.9555 ± 0.0065
coculture fibroblast: HMF | 0.835 ± 0.084 | 0.841 ± 0.11 | 0.853 ± 0.11 | 0.757 ± 0.084 | 0.855 ± 0.2 | 0.9812 ± 0.0074 | 0.969 ± 0.023
coculture fibroblast: HPFa | 0.9584 ± 0.0031 | 0.967 ± 0.011 | 0.981 ± 0.013 | 0.9539 ± 0.0049 | 0.9553 ± 0.0045 | 0.9564 ± 0.0015 | 0.941 ± 0.001
coculture fibroblast: HUF | 0.83 ± 0.1 | 0.795 ± 0.12 | 0.758 ± 0.12 | 0.743 ± 0.11 | 0.702 ± 0.1 | 0.687 ± 0.1 | 0.648 ± 0.11
coculture fibroblast: Hs5 | 0.704 ± 0.015 | 0.799 ± 0.099 | 0.9963 ± 0.0036 | 0.97 ± 0.023 | 0.938 ± 0.015 | 0.929 ± 0.014 | 0.922 ± 0.028
coculture fibroblast: Hs27A | 0.9462 ± 0.002 | 0.9496 ± 0.0085 | 0.927 ± 0.031 | 0.803 ± 0.028 | 0.886 ± 0.022 | 0.884 ± 0.024 | 0.841 ± 0.032
coculture fibroblast: Hs343T | 0.907 ± 0.032 | 0.918 ± 0.027 | 0.813 ± 0.12 | 0.731 ± 0.052 | 0.862 ± 0.15 | 0.958 ± 0.017 | 0.946 ± 0.018
coculture fibroblast: WS1 | 0.684 ± 0.069 | 0.78 ± 0.081 | 0.796 ± 0.11 | 0.788 ± 0.13 | 0.781 ± 0.14 | 0.782 ± 0.14 | 0.758 ± 0.16
